Test results taken from patent US20250295803A1, “5T4 ANTIBODY-DRUG CONJUGATES AND USES THEREOF” (EXELIXIS, INC., priority 2022, published 2025).
Where a chain is given by its changes, count along the chain named. No constants are given. Whether binding was seen depends on the method and setting. Some binding calls cover weakened binding; strength is not graded here.

Biological target: T1, human 5T4 produced internally (Lot 20-019-62) (human) (UniProt Q13641)
T1 sequence: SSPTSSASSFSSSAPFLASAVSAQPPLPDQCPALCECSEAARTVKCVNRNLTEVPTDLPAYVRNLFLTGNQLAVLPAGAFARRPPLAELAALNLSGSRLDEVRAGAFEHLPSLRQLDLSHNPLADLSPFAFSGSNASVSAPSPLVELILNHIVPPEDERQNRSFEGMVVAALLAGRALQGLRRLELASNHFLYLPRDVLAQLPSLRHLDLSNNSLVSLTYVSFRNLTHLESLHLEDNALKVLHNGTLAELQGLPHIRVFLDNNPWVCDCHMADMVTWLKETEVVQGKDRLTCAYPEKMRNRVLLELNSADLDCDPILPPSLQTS
Assay: Octet, antibody on AHC sensors, human 5T4 in solution (monovalent); internal lot

B1: mAbA15 (antibody, V domains shown)
VH: EVQLVESGGGLVQPGGSLRLSCAASGFTFSSYYIHWVRQAPGKGLEWVAYITSTGSYTEYADSVKGRFTISADTSKNTAYLQMNSLRAEDTAVYYCARYDRSTRYSGLDYWGQGTLVTVSS
VL: DIQMTQSPSSLSASVGDRVTITCRASQSVSSAVAWYQQKPGKAPKLLIYSASSLYSGVPSRFSGSRSGTDFTLTISSLQPEDFATYYCQQAYATPVTFGQGTKVEIKR
notes: also called Antibody mAbA15
In the case of B1, the binding is reported as “binds”.

B2: mAbA17 (antibody, V domains shown)
VH: EVQLVESGGGLVQPGGSLRLSCAASGFTFSRYWIHWVRQAPGKGLEWVAAIFPYSGSTLYADSVKGRFTISADTSKNTAYLQMNSLRAEDTAVYYCARSPSRSILPSGLDYWGQGTLVTVSS
VL: B1 VL with A91G, Y92D, A93G, T94S, V96Y
notes: also called Antibody mAbA17
With B2 the binding was “binds”.
